From the supplement of paper PMC10338343
± gives the standard deviation. This is a selection; strong and weak results do not stand in their true shares. Many of these values have a large error.

tested on: MILI (PIWIL2) piRISC loaded with L1MC piRNA (26 nt); assay: pre-steady-state target cleavage rate (min^-1); MIWI and MILI are mouse PIWI proteins and EfPiwi is from a freshwater sponge; tags in brackets are library labels; higher = faster piRNA-guided slicing of the target; settings: guide: L1MC piRNA 5'p-UAACUAAAUACUAUGCAAGCUGUAGG; auxiliary factor: 500 nM mouse GTSF1
Protocol: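 Cleave-'n-Seq: a library of target RNAs (target site embedded in constant flanks, ACAGCATTCCGCGTTAGTGATATCCG... 5' flank; DNA-blocked outside the site) at 0.1 nM was incubated with 1 nM active mouse MILI or MIWI piRISC (synthetic 5'-monophosphorylated piRNA guide) with or without 500 nM mouse GTSF1 at 33 °C for 1 min to 16 h. Uncleaved targets were sequenced and normalised to non-target controls, and the pooled three trials were fitted to a burst-and-steady-state model to give the pre-steady-state cleavage rate (min^-1; k3 is constrained to at most 1e-4). Sequence is the target site only; target names encode pairing extent (gX:gY) and contiguous / 1-mismatch / 2-mismatch / bulge geometry. Fits with R² ≤ 0 are excluded.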

Q: UCCUGGAUGUCGAACGUUAGUUUUUAGUAA was tested. Which “pre-steady-state target cleavage rate” value did it give?
A: Its value is 0.000175 ± 0.03.

Q: With UCCUGGAUGUCCUUGCAUAGUACUUUAGUUA as the sequence, how does the “pre-steady-state target cleavage rate” value read?
A: Its value is 0.0282 ± 0.011.

Q: Which “pre-steady-state target cleavage rate” value does the source give for UCCUGGAUGUCGUAGGAUAGUAUUUAGUUA here?
A: Its value is 0.00186 ± 0.0041.

Q: For UCCUGGAUGAGCUUGCAUAGUUUUUAGAUA, which “pre-steady-state target cleavage rate” value is on record?
A: Its value is 0.00379 ± 0.0042.

Q: For UCCUGGAUGUCGAACGUUAAGUAUUUAGUUA, which “pre-steady-state target cleavage rate” value is on record?
A: Its value is 0.000351 ± 0.02.

Q: For UCCUGGUUCAGCUUGCAUAGUAUUUUGUUA, which “pre-steady-state target cleavage rate” value is on record?
A: Its value is 0.16 ± 0.03.

Q: For UCCUGCUACAGCUUGCAUAGUUUUUUGUUA, which “pre-steady-state target cleavage rate” value is on record?
A: Its value is 0.112 ± 0.028.

Q: With UCCUGCUACAGCUAGCAUAGUAUUUAGUAA as the sequence, how does the “pre-steady-state target cleavage rate” value read?
A: The value was 0.212 ± 0.019.

Q: “UCCUGGAUGUCGUUGCAUAGUAUUAUCAAA [g7:g18:cont:t1A]” was tested. Which “pre-steady-state target cleavage rate” value did it give?
A: The value was 0.00201 ± 0.0056.

Q: For UCCUGGAACAGCUUGCAUAGUAUUUAGCUUA, which “pre-steady-state target cleavage rate” value is on record?
A: The value was 0.195 ± 0.047.

Q: Which “pre-steady-state target cleavage rate” value does the source give for UCCUGGAUGUCCUUGCAUAGUAAUAAGUUA here?
A: Its value is 0.0367 ± 0.013.

Q: With UCCUGGAACAGCUUGCAUAGUUUUUAGAAA as the sequence, how does the “pre-steady-state target cleavage rate” value read?
A: Its value is 0.0191 ± 0.007.

same assay, conditions: guide: L1MC piRNA 5'p-UAACUAAAUACUAUGCAAGCUGUAGG; auxiliary factor: none (no GTSF1)

Q: UCCUGGAUGUCGAACGUUAGUUUUUAGUAA was tested. Which “pre-steady-state target cleavage rate” value did it give?
A: Its value is 0.000288 ± 0.013.

Q: With UCCUGGAUGAGCAACCAUAGUAUUUAGUUA as the sequence, how does the “pre-steady-state target cleavage rate” value read?
A: Its value is 0.00186 ± 0.0037.

Q: For UCCUGGAUGUCCUUGCAUAGUACUUUAGUUA, which “pre-steady-state target cleavage rate” value is on record?
A: Its value is 0.00534 ± 0.0022.

Q: Which “pre-steady-state target cleavage rate” value does the source give for UCCUCCAUCAGCUUGCAUAGUAUUUUCAAA here?
A: Its value is 0.00141 ± 0.0035.

Q: With UCCUGGAUGUCGUAGGAUAGUAUUUAGUUA as the sequence, how does the “pre-steady-state target cleavage rate” value read?
A: The value was 0.000219 ± 0.024.

Q: With UCCUGGAUCAGCUUGCAUAUGUAUUUAGUUA as the sequence, how does the “pre-steady-state target cleavage rate” value read?
A: The value was 0.00162 ± 0.0053.

Q: UCCUGGAUGAGCUUGCAUAGUUUUUAGAUA was tested. Which “pre-steady-state target cleavage rate” value did it give?
A: The value was 0.00127 ± 0.0054.

Q: How did the “pre-steady-state target cleavage rate” value turn out when UCCUGGAUGUGCUUGCAUAGUAUUUGUUA was run?
A: The value was 0.00113 ± 0.0059.

Q: For UCCUGCUACAGCUUGCAUAGUAUUAUGAAA, which “pre-steady-state target cleavage rate” value is on record?
A: Its value is 0.00108 ± 0.0054.

Q: With UCCUGGUACACCUUGCAUAGUAUUUACUUA as the sequence, how does the “pre-steady-state target cleavage rate” value read?
A: Its value is 0.00121 ± 0.0088.

Q: UCCUGCUACAGGAAGCAUAGUAUUUAGAAA was tested. Which “pre-steady-state target cleavage rate” value did it give?
A: The value was 0.00071 ± 0.0086.

Q: How did the “pre-steady-state target cleavage rate” value turn out when UCCUGGAUGUCGAACGUUAAGUAUUUAGUUA was run?
A: Its value is 0.00027 ± 0.013.

Q: For UCCUGGUUCAGCUUGCAUAGUAUUUUGUUA, which “pre-steady-state target cleavage rate” value is on record?
A: Its value is 0.00444 ± 0.0036.

Q: UCCUCCUACAGCUUCCAUAGUAUUUUGUUA was tested. Which “pre-steady-state target cleavage rate” value did it give?
A: The value was 0.000555 ± 0.0093.

Q: With UCCUGCUACAGCUUGGAUACUAUUUAGUUA as the sequence, how does the “pre-steady-state target cleavage rate” value read?
A: The value was 0.00214 ± 0.003.

Q: How did the “pre-steady-state target cleavage rate” value turn out when UCCUCCUACAGCUUGCAUAGUAUUAUCUUA was run?
A: The value was 0.0019 ± 0.0044.

Q: Which “pre-steady-state target cleavage rate” value does the source give for UCCUGCUACAGCUUGCAUAGUUUUUUGUUA here?
A: The value was 0.00213 ± 0.003.

Q: Which “pre-steady-state target cleavage rate” value does the source give for UCCUGCUACAGCUAGCAUAGUAUUUAGUAA here?
A: The value was 0.00281 ± 0.0031.

Q: With UCCUGCUACAGCUUGCACUAGUAUUUAGUUA as the sequence, how does the “pre-steady-state target cleavage rate” value read?
A: The value was 0.00181 ± 0.004.

Q: How did the “pre-steady-state target cleavage rate” value turn out when UCCUGGAUGAGCUUGCAUAGUAUUUUCUUA was run?
A: The value was 0.00148 ± 0.0057.

Q: How did the “pre-steady-state target cleavage rate” value turn out when UCCUGGAUGUCGAAGCAAUCUAUUUAGUUA was run?
A: The value was 0.000189 ± 0.02.

Q: UCCUCCUACAGCUUGCAUAGAAAUUAGUUA was tested. Which “pre-steady-state target cleavage rate” value did it give?
A: Its value is 0.0015 ± 0.003.

Q: With “UCCUGGAUGUCGUUGCAUAGUAUUAUCAAA [g7:g18:cont:t1A]” as the sequence, how does the “pre-steady-state target cleavage rate” value read?
A: Its value is 0.000473 ± 0.011.

Q: With UCCUGGAACAGCUUGCAUAGUAUUUAGCUUA as the sequence, how does the “pre-steady-state target cleavage rate” value read?
A: The value was 0.00202 ± 0.004.

Q: Which “pre-steady-state target cleavage rate” value does the source give for UCCUCCUACAGCUUGCAUAGUAAAAAGUUA here?
A: Its value is 0.00196 ± 0.0038.

Q: With UCCUGGAUGUCCUUGCAUAGUUUUUAGUAA as the sequence, how does the “pre-steady-state target cleavage rate” value read?
A: Its value is 0.00235 ± 0.0031.

Q: How did the “pre-steady-state target cleavage rate” value turn out when UCCUGGAUGUCCUUGCAUAGUAAUAAGUUA was run?
A: Its value is 0.00284 ± 0.0025.

Q: For UCCUGGAACAGCUUGCAUAGUUUUUAGAAA, which “pre-steady-state target cleavage rate” value is on record?
A: The value was 0.0011 ± 0.005.
